Results on eight molecules are retold here after paper doi:10.1101/823096.

Sequences of proteins named here, by UniProt entry; tags and fusion partners are left off.
UniProt P67775: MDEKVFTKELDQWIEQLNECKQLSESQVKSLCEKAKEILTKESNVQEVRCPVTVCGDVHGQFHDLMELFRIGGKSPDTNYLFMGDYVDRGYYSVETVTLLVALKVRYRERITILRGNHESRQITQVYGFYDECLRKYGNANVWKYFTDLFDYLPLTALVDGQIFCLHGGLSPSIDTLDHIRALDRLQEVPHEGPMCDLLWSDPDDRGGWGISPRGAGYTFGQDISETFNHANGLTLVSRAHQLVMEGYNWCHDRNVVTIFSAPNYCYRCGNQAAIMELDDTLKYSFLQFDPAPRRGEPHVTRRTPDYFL
UniProt O95819: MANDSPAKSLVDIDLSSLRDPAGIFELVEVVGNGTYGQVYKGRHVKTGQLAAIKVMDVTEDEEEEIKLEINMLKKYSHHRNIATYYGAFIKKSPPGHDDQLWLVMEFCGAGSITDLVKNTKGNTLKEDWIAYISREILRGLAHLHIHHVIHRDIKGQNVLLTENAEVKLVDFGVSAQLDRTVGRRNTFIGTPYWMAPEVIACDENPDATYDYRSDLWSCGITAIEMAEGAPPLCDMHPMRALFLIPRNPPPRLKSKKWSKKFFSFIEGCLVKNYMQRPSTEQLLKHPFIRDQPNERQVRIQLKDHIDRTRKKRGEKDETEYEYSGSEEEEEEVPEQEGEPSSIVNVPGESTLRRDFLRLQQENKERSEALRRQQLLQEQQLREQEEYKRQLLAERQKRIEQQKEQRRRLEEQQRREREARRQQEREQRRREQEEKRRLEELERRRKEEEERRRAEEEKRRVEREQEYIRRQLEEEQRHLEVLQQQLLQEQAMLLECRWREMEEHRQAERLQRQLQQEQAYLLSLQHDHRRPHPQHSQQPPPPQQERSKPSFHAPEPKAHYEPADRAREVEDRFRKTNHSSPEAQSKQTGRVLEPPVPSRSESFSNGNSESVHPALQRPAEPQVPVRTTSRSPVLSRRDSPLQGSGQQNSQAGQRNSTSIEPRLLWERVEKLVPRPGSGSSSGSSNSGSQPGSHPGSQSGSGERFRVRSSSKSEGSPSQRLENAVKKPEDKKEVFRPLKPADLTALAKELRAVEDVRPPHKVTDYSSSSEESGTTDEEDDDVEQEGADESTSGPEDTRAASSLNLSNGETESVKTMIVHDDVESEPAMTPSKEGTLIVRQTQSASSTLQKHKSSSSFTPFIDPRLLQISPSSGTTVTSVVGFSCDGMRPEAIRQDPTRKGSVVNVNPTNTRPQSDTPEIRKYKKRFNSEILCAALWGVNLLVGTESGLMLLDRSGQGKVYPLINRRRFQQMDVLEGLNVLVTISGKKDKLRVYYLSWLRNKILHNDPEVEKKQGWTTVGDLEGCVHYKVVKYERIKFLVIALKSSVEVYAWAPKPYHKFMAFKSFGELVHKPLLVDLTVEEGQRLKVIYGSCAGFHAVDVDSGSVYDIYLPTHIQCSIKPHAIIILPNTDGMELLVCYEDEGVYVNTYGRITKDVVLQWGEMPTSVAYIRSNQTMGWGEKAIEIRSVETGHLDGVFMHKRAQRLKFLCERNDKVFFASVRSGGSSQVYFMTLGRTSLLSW
UniProt P30153: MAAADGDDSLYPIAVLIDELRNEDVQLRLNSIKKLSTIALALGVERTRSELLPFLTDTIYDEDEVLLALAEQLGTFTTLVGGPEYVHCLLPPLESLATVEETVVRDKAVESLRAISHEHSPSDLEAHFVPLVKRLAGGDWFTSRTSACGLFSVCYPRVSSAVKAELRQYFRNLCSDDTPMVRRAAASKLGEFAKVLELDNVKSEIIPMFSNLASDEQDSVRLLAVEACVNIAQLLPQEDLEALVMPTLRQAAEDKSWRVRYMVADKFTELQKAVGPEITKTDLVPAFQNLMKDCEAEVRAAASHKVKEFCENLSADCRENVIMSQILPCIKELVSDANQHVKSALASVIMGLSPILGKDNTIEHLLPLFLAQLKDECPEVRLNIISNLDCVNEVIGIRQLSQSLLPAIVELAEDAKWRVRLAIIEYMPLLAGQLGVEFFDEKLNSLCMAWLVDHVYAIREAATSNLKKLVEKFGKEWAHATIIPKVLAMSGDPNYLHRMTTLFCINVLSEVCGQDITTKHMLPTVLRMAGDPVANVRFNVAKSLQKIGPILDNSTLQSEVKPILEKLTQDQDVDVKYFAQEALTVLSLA

B1: SLMAP, endogenous (protein, UniProt Q14BN4 1-828)
chain: MPSALAIFTCRPNSHPFQERHVYLDEPIKIGRSVARCRPAQNNATFDCKVLSRNHALVWFDHKTGKFYLQDTKSSNGTFINSQRLSRGSEESPPCEILSGDIIQFGVDVTENTRKVTHGCIVSTIKLFLPDGMEARLRSDVIHAPLPSPVDKVAANTPSMYSQELFQLSQYLQEALHREQMLEQKLATLQRLLAITQEASDTSWQALIDEDRLLSRLEVMGNQLQACSKNQTEDSLRKELIALQEDKHNYETTAKESLRRVLQEKIEVVRKLSEVERSLSNTEDECTHLKEMNERTQEELRELANKYNGAVNEIKDLSDKLKVAEGKQEEIQQKGQAEKKELQHKIDEMEEKEQELQAKIEALQADNDFTNERLTALQVRLEHLQEKTLKECSSLEHLLSKSGGDCTFIHQFIECQKKLIVEGHLTKAVEETKLSKENQTRAKESDFSDTLSPSKEKSSDDTTDAQMDEQDLNEPLAKVSLLKDDLQGAQSEIEAKQEIQHLRKELIEAQELARTSKQKCFELQALLEEERKAYRNQVEESTKQIQVLQAQLQRLHIDTENLREEKDSEITSTRDELLSARDEILLLHQAAAKVASERDTDIASLQEELKKVRAELERWRKAASEYEKEITSLQNSFQLRCQQCEDQQREEATRLQGELEKLRKEWNALETECHSLKRENVLLSSELQRQEKELHNSQKQSLELTSDLSILQMSRKELENQVGSLKEQHLRDSADLKTLLSKAENQAKDVQKEYEKTQTVLSELKLKFEMTEQEKQSITDELKQCKNNLKLLREKGNNKPWPWMPMLAALVAVTAIVLYVPGLARASP
B2: CTTNBP2NL, endogenous (protein, UniProt Q9P2B4 1-639)
chain: MNLEKLSKPELLTLFSILEGELEARDLVIEALKAQHRDTFIEERYGKYNISDPLMALQRDFETLKEKNDGEKQPVCTNPLSILKVVMKQCKNMQERMLSQLAAAESRHRKVILDLEEERQRHAQDTAEGDDVTYMLEKERERLTQQLEFEKSQVKKFEKEQKKLSSQLEEERSRHKQLSSMLVLECKKATNKAAEEGQKAGELSLKLEKEKSRVSKLEEELAAERKRGLQTEAQVEKQLSEFDIEREQLRAKLNREENRTKTLKEEMESLKKIVKDLEASHQHSSPNEQLKKPVTVSKGTATEPLMLMSVFCQTESFPAERTHGSNIAKMTNTGLPGPATPAYSYAKTNGHCDPEIQTTRELTAGNNVENQVPPREKSVALAQEKPVENGGCPVGIETPVPMPSPLSSSGSSLSPSSTASSSLTSSPCSSPVLTKRLLGSSASSPGYQSSYQVGINQRFHAARHKFQSQADQDQQASGLQSPPSRDLSPTLIDNSAAKQLARNTVTQVLSRFTSQQGPIKPVSPNSSPFGTDYRNLANTANPRGDTSHSPTPGKVSSPLSPLSPGIKSPTIPRAERGNPPPIPPKKPGLTPSPSATTPLTKTHSQAASLTTAEDLASSCSSNTVVANGKDVELLLPTSS
B3: SIKE1, endogenous (protein, UniProt Q9BRV8 1-207)
chain: MSCTIEKILTDAKTLLERLREHDAAAESLVDQSAALHRRVAAMREAGTALPDQYQEDASDMKDMSKYKPHILLSQENTQIRDLQQENRELWISLEEHQDALELIMSKYRKQMLQLMVAKKAVDAEPVLKAHQSHSAEIESQIDRICEMGEVMRKAVQVDDDQFCKIQEKLAQLELENKELRELLSISSESLQARKENSMDTASQAIK
B4: STRN3, endogenous (protein, UniProt Q13033 1-797)
chain: MDELAGGGGGGPGMAAPPRQQQGPGGNLGLSPGGNGAAGGGGPPASEGAGPAAGPELSRPQQYTIPGILHYIQHEWARFEMERAHWEVERAELQARIAFLQGERKGQENLKKDLVRRIKMLEYALKQERAKYHKLKYGTELNQGDLKMPTFESEETKDTEAPTAPQNSQLTWKQGRQLLRQYLQEVGYTDTILDVRSQRVRSLLGLSNSEPNGSVETKNLEQILNGGESPKQKGQEIKRSSGDVLETFNFLENADDSDEDEENDMIEGIPEGKDKHRMNKHKIGNEGLAADLTDDPDTEEALKEFDFLVTAEDGEGAGEARSSGDGTEWDKDDLSPTAEVWDVDQGLISKLKEQYKKERKGKKGVKRANRTKLYDMIADLGDDELPHIPSGIINQSRSASTRMTDHEGARAEEAEPITFPSGGGKSFIMGSDDVLLSVLGLGDLADLTVTNDADYSYDLPANKDAFRKTWNPKYTLRSHFDGVRALAFHPVEPVLVTASEDHTLKLWNLQKTVPAKKSASLDVEPIYTFRAHIGPVLSLAISSNGEQCFSGGIDATIQWWNMPSPSVDPYDTYEPNVLAGTLVGHTDAVWGLAYSGIKNQLLSCSADGTVRLWNPQEKLPCICTYNGDKKHGIPTSVDFIGCDPAHMVTSFNTGSAVIYDLETSQSLVILSSQVDSGLQSNNHINRVVSHPTLPVTITAHEDRHIKFFDNKTGKMIHSMVAHLDAVTSLAVDPNGIYLMSGSHDCSIRLWNLDSKTCVQEITAHRKKLDESIYDVAFHSSKAYIASAGADALAKVFV
B5: STRN4, endogenous (protein, UniProt Q9NRL3 1-753)
chain: MMEERAAAAVAAAASSCRPLGSGAGPGPTGAAPVSAPAPGPGPAGKGGGGGGSPGPTAGPEPLSLPGILHFIQHEWARFEAEKARWEAERAELQAQVAFLQGERKGQENLKTDLVRRIKMLEYALKQERAKYHKLKFGTDLNQGEKKADVSEQVSNGPVESVTLENSPLVWKEGRQLLRQYLEEVGYTDTILDMRSKRVRSLLGRSLELNGAVEPSEGAPRAPPGPAGLSGGESLLVKQIEEQIKRNAAGKDGKERLGGSVLGQIPFLQNCEDEDSDEDDELDSVQHKKQRVKLPSKALVPEMEDEDEEDDSEDAINEFDFLGSGEDGEGAPDPRRCTVDGSPHELESRRVKLQGILADLRDVDGLPPKVTGPPPGTPQPRPHEDVFIMDTIGGGEVSLGDLADLTVTNDNDLSCDLSDSKDAFKKTWNPKFTLRSHYDGIRSLAFHHSQSALLTASEDGTLKLWNLQKAVTAKKNAALDVEPIHAFRAHRGPVLAVAMGSNSEYCYSGGADACIHSWKIPDLSMDPYDGYDPSVLSHVLEGHGDAVWGLAFSPTSQRLASCSADGTVRIWDPSSSSPACLCTFPTASEHGVPTSVAFTSTEPAHIVASFRSGDTVLYDMEVGSALLTLESRGSSGPTQINQVVSHPNQPLTITAHDDRGIRFLDNRTGKPVHSMVAHLDAVTCLAVDPNGAFLMSGSHDCSLRLWSLDNKTCVQEITAHRKKHEEAIHAVACHPSKALIASAGADALAKVFV

These are yes or no findings as the source states them, for the method shown. In cells and extracts the contact can be indirect. Here binding means that the protein was enriched with, or labelled near, the bait; the list need not be complete.

The first assay has as its target T1, STRN4, endogenous (human (endogenous in HEK TER, IMR90)) (UniProt Q9NRL3).
T1 sequence: B5 chain
Description: affinity purification with mass spectrometry.
As for “PP2A Cα subunit, endogenous (from UniProt P67775 1-309) (enzyme)”, the binding result is reported as “binds”.

“mitogen-activated protein kinase kinase kinase kinase 4 (MAP4K4), endogenous (from UniProt O95819 1-1239) (enzyme)”: the binding result is “binds”. On the same count and under the same terms, to B1 belongs “binds”; to B2, “binds”; to B3, “binds”.

The target in the next assay is NTAP-MAP4K4 (N-terminal Flag-HA tagged MAP4K4) (human) (UniProt O95819). The experiment in a line: affinity purification with mass spectrometry.
On to “PP2A Aα subunit (PPP2R1A), endogenous (from UniProt P30153 1-589)”, for which the binding result is listed as “binds”. Same read-out and setting: to B4 belongs “binds”; to B5, “binds”.
